# Experimental data reported in patent US20040204590A1, “Ep4 receptor agonist, compositions and methods thereof” (priority 2001, published 2004).
# At least one compound was matched to its structure with a doubt left.
# Test system: RCT-1 cells
# Test: EP4 mRNA expression in RCT-1 cells (Northern blot)
# Assay type: cell-based, rat
structure (smiles),measurement,value
CC1=C(/C=C/C(C)=C/C=C/C(C)=C/C(=O)O)C(C)(C)CCC1 [retinoic acid],levels of EP4 mRNA,reduces
